Measurements reported in PubChem BioAssay AID1259308 (NCATS, 2017)
In all, the deposit lists about 59,000 reagents; this is a part drawn at random. About 1,510 of them (2.6%) were called active. 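Calls use total luciferase alone and ignore viability, so some active siRNAs may act by altering cell number.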 Reagents against one gene are numbered here. Further read-outs or replicates are left out here. Reagent sequences are not shown.

Purpose: 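Knock-downs that increase output of a recombinant reporter protein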 (primary screen)
Cell system: human HEK293 embryonic kidney cells stably expressing firefly luciferase (HEK-CMV-Luc2-Hygro)
Knock-down reagent: single siRNA against human genes, 0.8 pmol siRNA per well
Timing: 72 h
Detection: 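Reporter luminescence and viable-cell signal on separate replicate plates, given as percent of non-targeting control and median/MAD z-scores, plus per-cell luciferase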
Direction: total luciferase, z-score: higher = more reporter protein produced
Hit rule: 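An siRNA counts as active if its total luciferase robust z-score exceeds 3; genes with two or more such siRNAs out of three were retested with fresh siRNAs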
Meaning of the calls: active = raised luciferase; inactive = no rise

no.	gene knocked down	reagent	total luciferase, z-score	Call
1	DIABLO	1	-0.00454	inactive
2	DIABLO	2	-0.186	inactive
3	DIABLO	3	0.575	inactive
4	OFD1	1	-0.256	inactive
5	OFD1	2	-1.23	inactive
6	OFD1	3	0.557	inactive
7	SCO1	1	0.231	inactive
8	SCO1	2	0.999	inactive
9	SCO1	3	0.0985	inactive
10	KCNB2	1	0.327	inactive
11	KCNB2	2	-0.223	inactive
12	KCNB2	3	-0.288	inactive
13	AKR1E2	1	0.102	inactive
14	AKR1E2	2	1.41	inactive
15	AKR1E2	3	0.934	inactive
16	LOC283788	1	1.19	inactive
17	LOC283788	2	0.236	inactive
18	LOC283788	3	0.27	inactive
19	RPS10P29	1	-0.0764	inactive
20	RPS10P29	2	0.464	inactive
21	RPS10P29	3	-0.227	inactive
22	OSBPL8	1	2.45	inactive
23	OSBPL8	2	0.478	inactive
24	OSBPL8	3	-0.131	inactive
25	NFATC1	1	-1.36	inactive
26	NFATC1	2	-0.468	inactive
27	NFATC1	3	1.48	inactive

Quoted from above, 8 entries:
no.	gene knocked down	reagent	total luciferase, z-score	Call
10	KCNB2	1	0.327	inactive
11	KCNB2	2	-0.223	inactive
12	KCNB2	3	-0.288	inactive
13	AKR1E2	1	0.102	inactive
14	AKR1E2	2	1.41	inactive
15	AKR1E2	3	0.934	inactive
16	LOC283788	1	1.19	inactive
17	LOC283788	2	0.236	inactive

The results go on.
no.	gene knocked down	reagent	total luciferase, z-score	Call
28	IFT122P3	1	0.19	inactive
29	IFT122P3	2	-0.207	inactive
30	IFT122P3	3	0.199	inactive
31	THRB-AS1	1	-1.88	inactive
32	THRB-AS1	2	0.594	inactive
33	THRB-AS1	3	1.68	inactive
34	KCNH7	1	-1.16	inactive
35	KCNH7	2	-0.115	inactive
36	KCNH7	3	0.297	inactive
37	GPR68	1	0.504	inactive
38	GPR68	2	-0.245	inactive
39	GPR68	3	2.11	inactive
40	TSPYL5	1	1.29	inactive
41	TSPYL5	2	0.806	inactive
42	TSPYL5	3	-0.923	inactive
43	PCDHAC1	1	-0.783	inactive
44	PCDHAC1	2	0.452	inactive
45	PCDHAC1	3	1.28	inactive
46	POU4F3	1	2.25	inactive
47	POU4F3	2	-0.35	inactive
48	POU4F3	3	1.2	inactive
49	ZNF668	1	2.83	inactive
50	ZNF668	2	1.41	inactive
51	ZNF668	3	1.01	inactive
52	TPTE	1	-0.708	inactive
53	TPTE	2	-0.11	inactive
54	TPTE	3	-0.0749	inactive
55	LOC401220 (retired record)	1	1.79	inactive
56	LOC401220 (retired record)	2	2.84	inactive
57	LOC401220 (retired record)	3	-2.62	inactive
